# Results are given in words; binding and its absence hold for the method and conditions named. In cells and extracts the contact can be indirect. A result given as binding can be weak or reduced; the word gives no strength. Tags and fused reporters may be left off the sequences shown.
# Target: T1, Recombinant His-tagged FlaA (Vibrio anguillarum) (UniProt Q60246)
# T1 sequence: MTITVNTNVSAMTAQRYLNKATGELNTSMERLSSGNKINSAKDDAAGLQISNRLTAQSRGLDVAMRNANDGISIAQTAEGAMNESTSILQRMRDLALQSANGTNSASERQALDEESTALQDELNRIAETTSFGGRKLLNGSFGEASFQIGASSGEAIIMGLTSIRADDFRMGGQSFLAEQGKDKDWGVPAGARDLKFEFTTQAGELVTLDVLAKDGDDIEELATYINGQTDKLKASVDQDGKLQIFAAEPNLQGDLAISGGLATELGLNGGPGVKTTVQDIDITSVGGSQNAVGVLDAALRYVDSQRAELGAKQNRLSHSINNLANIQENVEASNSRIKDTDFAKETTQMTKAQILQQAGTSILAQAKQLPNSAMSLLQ
# Assay: pull-down; His-tagged FlaA (10 μg) incubated with shrimp hemocytes homogenate supernatant (15 ml, PBS) at 4°C overnight; Ni-NTA resin, eluted with 250 mM imidazole; western blotting with anti-MjShoc2 and anti-6His antibodies; only the target purified
substance,measurement,value
native MjShoc2 from shrimp hemocytes,binding,binds
